Drawing on the supplement of paper PMC12819154, “High-throughput peptide-centric local stability assay extends protein–ligand identification to membrane proteins, tissues and bacteria” (Nature Structural & Molecular Biology, 2025), this text covers log2 fold change for 38 targets.

Chains of the proteins cited; added tags and fusions are not shown. Lines headed by an entry give the natural chain unless they say otherwise; changes in a name come on top.
UniProt Q9H7X3: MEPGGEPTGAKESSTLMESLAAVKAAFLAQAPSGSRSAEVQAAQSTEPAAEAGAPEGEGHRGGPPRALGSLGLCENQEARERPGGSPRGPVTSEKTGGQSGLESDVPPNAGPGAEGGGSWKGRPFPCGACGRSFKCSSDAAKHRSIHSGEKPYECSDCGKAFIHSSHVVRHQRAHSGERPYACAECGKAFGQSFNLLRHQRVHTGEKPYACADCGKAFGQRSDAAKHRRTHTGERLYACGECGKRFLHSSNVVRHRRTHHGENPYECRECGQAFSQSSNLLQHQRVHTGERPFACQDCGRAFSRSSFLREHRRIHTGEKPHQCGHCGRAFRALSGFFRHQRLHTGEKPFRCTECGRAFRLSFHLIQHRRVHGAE
UniProt Q9HCC0: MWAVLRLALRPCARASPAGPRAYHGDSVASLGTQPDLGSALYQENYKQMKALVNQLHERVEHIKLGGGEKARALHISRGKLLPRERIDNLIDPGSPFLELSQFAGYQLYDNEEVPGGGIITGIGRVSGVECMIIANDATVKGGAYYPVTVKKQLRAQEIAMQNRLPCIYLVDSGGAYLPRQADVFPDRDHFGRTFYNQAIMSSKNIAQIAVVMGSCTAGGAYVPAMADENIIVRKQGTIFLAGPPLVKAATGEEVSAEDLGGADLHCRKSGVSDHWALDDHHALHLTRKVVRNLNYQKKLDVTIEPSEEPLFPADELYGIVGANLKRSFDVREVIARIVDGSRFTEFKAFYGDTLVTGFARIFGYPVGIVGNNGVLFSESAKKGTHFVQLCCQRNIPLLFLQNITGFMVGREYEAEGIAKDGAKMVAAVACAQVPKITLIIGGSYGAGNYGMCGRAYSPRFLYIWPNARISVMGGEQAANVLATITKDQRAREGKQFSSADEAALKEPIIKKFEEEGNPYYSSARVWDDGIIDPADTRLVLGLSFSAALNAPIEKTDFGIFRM
UniProt Q9NP31, whole entry, looked up: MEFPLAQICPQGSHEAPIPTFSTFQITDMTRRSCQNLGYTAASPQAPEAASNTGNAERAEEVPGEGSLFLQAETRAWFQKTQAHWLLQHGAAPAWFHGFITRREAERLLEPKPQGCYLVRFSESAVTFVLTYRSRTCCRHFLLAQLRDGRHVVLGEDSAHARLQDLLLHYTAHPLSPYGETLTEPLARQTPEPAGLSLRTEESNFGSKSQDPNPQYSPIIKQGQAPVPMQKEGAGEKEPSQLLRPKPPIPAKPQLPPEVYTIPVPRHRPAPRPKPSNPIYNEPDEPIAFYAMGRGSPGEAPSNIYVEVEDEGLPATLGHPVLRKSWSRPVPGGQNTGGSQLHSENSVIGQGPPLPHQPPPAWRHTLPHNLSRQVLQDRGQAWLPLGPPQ
UniProt Q9HAU5: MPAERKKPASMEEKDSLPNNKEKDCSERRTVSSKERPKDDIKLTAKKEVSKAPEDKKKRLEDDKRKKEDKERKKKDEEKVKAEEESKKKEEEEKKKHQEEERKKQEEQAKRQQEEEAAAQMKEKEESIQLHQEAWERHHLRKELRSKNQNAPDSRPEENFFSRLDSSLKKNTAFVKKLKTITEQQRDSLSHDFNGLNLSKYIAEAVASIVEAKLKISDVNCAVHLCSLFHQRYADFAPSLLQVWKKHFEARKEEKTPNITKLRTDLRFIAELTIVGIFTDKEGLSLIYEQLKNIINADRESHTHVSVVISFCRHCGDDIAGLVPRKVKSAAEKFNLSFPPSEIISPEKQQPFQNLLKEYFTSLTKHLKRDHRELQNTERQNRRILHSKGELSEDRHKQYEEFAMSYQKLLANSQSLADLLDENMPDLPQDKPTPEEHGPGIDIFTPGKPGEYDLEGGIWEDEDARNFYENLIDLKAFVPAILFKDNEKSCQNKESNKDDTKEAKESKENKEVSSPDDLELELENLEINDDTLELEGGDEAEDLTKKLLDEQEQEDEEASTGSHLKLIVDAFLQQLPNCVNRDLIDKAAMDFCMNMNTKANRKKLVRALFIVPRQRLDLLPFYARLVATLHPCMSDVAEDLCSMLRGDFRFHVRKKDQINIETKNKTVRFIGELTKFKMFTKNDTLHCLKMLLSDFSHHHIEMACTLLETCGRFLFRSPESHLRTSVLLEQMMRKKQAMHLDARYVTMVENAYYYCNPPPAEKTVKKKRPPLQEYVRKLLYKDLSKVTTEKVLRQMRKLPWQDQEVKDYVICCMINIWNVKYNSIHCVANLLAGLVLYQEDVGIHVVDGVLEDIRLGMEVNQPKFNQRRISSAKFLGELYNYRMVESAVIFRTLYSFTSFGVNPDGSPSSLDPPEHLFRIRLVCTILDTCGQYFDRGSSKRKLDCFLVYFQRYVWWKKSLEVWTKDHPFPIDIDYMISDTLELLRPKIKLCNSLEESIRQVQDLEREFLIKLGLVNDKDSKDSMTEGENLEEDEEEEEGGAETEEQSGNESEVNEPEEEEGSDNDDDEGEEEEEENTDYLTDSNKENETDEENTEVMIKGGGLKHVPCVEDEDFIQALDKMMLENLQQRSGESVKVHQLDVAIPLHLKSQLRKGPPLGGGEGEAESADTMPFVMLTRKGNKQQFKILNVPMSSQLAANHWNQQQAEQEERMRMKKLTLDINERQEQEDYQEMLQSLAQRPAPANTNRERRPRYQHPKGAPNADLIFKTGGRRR
UniProt Q9H8T0: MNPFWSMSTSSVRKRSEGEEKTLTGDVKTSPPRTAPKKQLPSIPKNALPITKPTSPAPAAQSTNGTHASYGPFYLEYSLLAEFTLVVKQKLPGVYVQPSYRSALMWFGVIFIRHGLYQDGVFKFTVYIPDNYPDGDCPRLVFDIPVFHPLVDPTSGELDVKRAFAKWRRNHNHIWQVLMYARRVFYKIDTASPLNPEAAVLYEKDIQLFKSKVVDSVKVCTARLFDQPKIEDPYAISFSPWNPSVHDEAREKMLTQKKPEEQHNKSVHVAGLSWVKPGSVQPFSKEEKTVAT
UniProt Q9HD47: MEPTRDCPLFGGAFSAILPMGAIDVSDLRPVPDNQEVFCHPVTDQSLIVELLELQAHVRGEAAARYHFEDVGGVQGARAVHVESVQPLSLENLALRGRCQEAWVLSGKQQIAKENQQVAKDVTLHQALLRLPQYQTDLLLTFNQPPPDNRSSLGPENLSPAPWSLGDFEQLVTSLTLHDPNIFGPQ
UniProt Q9H930: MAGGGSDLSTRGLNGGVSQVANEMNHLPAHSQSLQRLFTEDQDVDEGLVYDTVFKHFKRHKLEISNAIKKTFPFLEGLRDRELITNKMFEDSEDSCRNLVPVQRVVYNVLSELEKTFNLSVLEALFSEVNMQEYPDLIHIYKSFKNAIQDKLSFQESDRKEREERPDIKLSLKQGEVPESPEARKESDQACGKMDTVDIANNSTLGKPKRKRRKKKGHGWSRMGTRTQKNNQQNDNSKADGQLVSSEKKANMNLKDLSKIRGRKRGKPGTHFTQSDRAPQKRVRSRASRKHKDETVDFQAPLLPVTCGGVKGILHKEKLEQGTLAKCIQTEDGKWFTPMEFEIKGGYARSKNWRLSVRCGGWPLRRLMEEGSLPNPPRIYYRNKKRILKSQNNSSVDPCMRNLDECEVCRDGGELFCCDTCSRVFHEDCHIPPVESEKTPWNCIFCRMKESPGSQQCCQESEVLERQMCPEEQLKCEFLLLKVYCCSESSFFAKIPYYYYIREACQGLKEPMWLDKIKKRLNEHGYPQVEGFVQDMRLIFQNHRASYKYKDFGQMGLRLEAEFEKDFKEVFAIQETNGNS
UniProt Q9HCN8: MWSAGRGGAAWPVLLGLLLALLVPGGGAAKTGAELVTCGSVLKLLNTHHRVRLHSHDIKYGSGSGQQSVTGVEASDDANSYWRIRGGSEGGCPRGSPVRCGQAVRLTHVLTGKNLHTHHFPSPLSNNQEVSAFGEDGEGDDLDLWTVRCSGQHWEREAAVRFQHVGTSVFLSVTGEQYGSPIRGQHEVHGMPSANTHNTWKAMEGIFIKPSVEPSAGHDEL
UniProt Q9HAB8: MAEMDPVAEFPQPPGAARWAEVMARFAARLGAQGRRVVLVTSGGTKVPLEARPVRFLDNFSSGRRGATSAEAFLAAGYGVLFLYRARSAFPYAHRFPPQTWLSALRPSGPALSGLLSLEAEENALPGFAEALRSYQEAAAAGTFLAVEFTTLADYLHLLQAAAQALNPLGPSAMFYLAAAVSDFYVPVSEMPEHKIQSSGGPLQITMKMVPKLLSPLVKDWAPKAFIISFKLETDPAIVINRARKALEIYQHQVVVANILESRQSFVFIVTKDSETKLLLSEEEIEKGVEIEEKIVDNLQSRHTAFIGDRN
UniProt Q9NPJ4: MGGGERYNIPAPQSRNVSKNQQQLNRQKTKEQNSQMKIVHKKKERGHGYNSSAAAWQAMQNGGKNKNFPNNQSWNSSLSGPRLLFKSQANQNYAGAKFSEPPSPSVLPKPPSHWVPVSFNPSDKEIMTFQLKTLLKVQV
UniProt Q9H4L7: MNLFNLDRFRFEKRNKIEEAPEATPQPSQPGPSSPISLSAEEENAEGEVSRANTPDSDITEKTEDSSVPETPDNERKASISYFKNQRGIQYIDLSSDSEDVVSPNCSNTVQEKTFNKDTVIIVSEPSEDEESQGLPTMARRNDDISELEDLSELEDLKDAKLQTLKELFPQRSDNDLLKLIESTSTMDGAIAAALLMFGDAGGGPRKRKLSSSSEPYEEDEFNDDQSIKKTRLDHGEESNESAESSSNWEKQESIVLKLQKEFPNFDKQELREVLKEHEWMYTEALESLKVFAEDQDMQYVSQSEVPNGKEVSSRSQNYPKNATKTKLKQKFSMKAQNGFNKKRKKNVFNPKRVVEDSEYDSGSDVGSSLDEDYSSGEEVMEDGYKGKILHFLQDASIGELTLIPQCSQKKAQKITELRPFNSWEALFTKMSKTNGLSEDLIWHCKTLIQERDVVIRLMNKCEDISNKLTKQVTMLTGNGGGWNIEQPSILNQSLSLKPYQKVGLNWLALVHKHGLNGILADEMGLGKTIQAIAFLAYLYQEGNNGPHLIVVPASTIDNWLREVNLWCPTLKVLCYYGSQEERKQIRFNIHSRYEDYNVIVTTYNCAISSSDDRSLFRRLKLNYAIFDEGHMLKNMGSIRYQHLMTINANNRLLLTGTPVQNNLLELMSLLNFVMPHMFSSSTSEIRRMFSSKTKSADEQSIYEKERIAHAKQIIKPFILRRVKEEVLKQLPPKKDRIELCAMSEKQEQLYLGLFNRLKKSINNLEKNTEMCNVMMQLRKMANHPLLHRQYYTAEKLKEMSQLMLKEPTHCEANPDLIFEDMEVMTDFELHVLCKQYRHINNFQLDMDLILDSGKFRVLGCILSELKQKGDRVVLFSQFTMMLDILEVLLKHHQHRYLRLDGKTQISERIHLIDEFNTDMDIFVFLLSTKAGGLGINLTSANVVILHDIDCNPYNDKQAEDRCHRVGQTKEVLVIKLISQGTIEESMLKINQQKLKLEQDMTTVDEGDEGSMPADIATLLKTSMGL
UniProt Q9H6R0: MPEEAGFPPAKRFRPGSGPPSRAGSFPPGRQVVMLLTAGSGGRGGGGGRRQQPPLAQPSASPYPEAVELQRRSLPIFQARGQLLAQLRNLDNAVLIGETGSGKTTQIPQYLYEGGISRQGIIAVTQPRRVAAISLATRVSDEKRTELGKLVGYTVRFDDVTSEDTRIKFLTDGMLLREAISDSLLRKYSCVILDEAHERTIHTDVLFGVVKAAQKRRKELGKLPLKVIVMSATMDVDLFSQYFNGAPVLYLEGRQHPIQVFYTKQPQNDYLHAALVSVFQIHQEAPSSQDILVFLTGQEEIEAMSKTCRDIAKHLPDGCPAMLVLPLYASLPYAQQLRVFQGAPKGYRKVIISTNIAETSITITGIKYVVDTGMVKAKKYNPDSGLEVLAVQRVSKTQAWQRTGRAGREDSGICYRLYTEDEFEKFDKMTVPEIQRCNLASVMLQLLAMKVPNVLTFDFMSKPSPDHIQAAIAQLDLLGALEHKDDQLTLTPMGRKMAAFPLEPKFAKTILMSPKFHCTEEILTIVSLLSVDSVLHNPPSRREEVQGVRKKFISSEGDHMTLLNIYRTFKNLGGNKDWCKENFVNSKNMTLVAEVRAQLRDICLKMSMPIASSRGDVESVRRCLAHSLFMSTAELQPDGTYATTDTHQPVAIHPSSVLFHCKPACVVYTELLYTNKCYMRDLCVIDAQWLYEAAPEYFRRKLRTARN
UniProt Q9H7L9: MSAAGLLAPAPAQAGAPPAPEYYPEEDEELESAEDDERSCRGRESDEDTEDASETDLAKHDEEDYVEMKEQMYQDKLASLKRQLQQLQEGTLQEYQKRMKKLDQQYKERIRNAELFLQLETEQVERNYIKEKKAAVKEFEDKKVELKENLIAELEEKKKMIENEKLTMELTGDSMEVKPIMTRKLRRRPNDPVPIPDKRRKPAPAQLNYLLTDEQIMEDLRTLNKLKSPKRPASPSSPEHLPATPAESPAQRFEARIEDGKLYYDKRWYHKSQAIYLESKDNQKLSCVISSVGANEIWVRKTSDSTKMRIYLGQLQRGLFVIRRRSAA
UniProt Q9H7X7: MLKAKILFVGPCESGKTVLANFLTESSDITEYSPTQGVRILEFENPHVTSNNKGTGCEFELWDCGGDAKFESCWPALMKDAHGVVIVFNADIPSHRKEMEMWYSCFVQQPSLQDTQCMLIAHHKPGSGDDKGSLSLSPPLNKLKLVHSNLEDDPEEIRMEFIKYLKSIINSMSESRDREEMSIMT

The list shows a part of the results. Most values lie at the level of the controls, where differences are scatter.

Compound in the test: CN[C@@H]1C[C@H]2O[C@@](C)([C@@H]1OC)n1c3ccccc3c3c4c(c5c6ccccc6n2c5c31)C(=O)NC4 [staurosporine]
Nature of the test: log2 fold change of tryptic peptide abundance, ligand vs vehicle (limited proteolysis) (log2 ratio); higher = more trypsin-susceptible (destabilized). To be noted: ligand concentration: 20 uM; sample: K562 cleared lysate; digestion: 4 min, 22 C (HT-PELSA RT4min, Orbitrap Astral).
Turning to “CHD8 (peptide sequence: CSTPLLHQQYTSR, peptide start residue: 1980) (UniProt Q9HCK8)”, the log2 fold change was -0.434.

Turning to “XAGE1A (peptide sequence: EEHCKMPEAGEEQPQV, peptide start residue: 66) (UniProt Q9HD64)”, the log2 fold change amounted to 0.126.

As to “DDX31 (peptide sequence: NETSFLPAKK, peptide start residue: 152) (UniProt Q9H8H2)”, the log2 fold change stood at 0.761.

“ZNF696 (peptide sequence: AFIHSSHVVR, peptide start residue: 161) (UniProt Q9H7X3)”: the log2 fold change worked out at 0.508.

Turning to “TNS1 (peptide sequence: HPAGVYQVSGLHNK, peptide start residue: 1353) (UniProt Q9HBL0)”, the log2 fold change turned out to be 0.372.

As for “RNPEP (peptide sequence: AFELLHLHLDLR, peptide start residue: 33) (UniProt Q9H4A4)”, the log2 fold change is -0.718.

With “RC3H2 (peptide sequence: SVQELTIVLQR, peptide start residue: 330) (UniProt Q9HBD1)”, the log2 fold change was determined as 0.484.

“MCCC2 (peptide sequence: LPCIYLVDSGGAYLPR, peptide start residue: 165) (UniProt Q9HCC0)”: the log2 fold change is -0.18.

Take “SH2D2A (peptide sequence: LLEPKPQGCYLVR, peptide start residue: 108) (UniProt Q9NP31)”: the log2 fold change was found to be 0.523.

Regarding “SEC61A2 (peptide sequence: EQQMVMR, peptide start residue: 396) (UniProt Q9H9S3)”, the log2 fold change was 0.185.

“UPF2 (peptide sequence: ISDVNCAVHLCSLFHQR, peptide start residue: 216) (UniProt Q9HAU5)”: the log2 fold change is -0.149.

With “MAGEF1 (peptide sequence: MEVLGFVAK, peptide start residue: 252) (UniProt Q9HAY2)”, the log2 fold change is -0.0348.

For the target “AKTIP (peptide sequence: SVHVAGLSWVKPGSVQPFSK, peptide start residue: 266) (UniProt Q9H8T0)”, the log2 fold change was -0.77.

Regarding “RANGRF (peptide sequence: DVTLHQALLR, peptide start residue: 121) (UniProt Q9HD47)”, the log2 fold change was -0.152.

As to “SP140L (peptide sequence: QGEVPESPEAR, peptide start residue: 174) (UniProt Q9H930)”, the log2 fold change is 0.3.

With “BRD7 (peptide sequence: VENEAEKDLQCHAPVR, peptide start residue: 97) (UniProt Q9NPI1)”, the log2 fold change came to 0.393.

With “SSU72 (peptide sequence: SFGTGTHVK, peptide start residue: 35) (UniProt Q9NP77)”, the log2 fold change stood at 0.283.

For “NMRAL1 (peptide sequence: FYALRPDRDIELTLR, peptide start residue: 263) (UniProt Q9HBL8)”, the log2 fold change worked out at 0.426.

In the case of “C17orf75 (peptide sequence: RLEPPSSSHYCLYSYRGSR, peptide start residue: 29) (UniProt Q9HAS0)”, the log2 fold change was -0.785.

For “UniProt Q9H4M7 (peptide sequence: RGPPSEAGGGKPPR, peptide start residue: 299)”, the log2 fold change is 0.372.

With “SDF2L1 (peptide sequence: LTHVLTGK, peptide start residue: 106) (UniProt Q9HCN8)”, the log2 fold change stood at 0.25.

For “GPN1 (peptide sequence: TKLPFIVVMNK, peptide start residue: 180) (UniProt Q9HCN4)”, the log2 fold change came to 0.24.

For the target “ZFYVE28 (peptide sequence: VCTHCYMFHVTPFYSDK, peptide start residue: 868) (UniProt Q9HCC9)”, the log2 fold change is -0.857.

Consider “GOPC (peptide sequence: SQGVGPIRK, peptide start residue: 280) (UniProt Q9HD26)”, for which the log2 fold change was found to be 0.674.

Turning to “ESF1 (peptide sequence: LAVCNMDWDRLK, peptide start residue: 350) (UniProt Q9H501)”, the log2 fold change came out at 0.778.

Turning to “PPCS (peptide sequence: LLLSEEEIEKGVEIEEK, peptide start residue: 278) (UniProt Q9HAB8)”, the log2 fold change came to 0.699.

In the case of “NRIP3 (peptide sequence: DSADLLPLDGLKK, peptide start residue: 39) (UniProt Q9NQ35)”, the log2 fold change turned out to be 0.466.

In the case of “UniProt Q9NPJ4 (peptide sequence: NQQQLNR, peptide start residue: 20)”, the log2 fold change came to 0.478.

For the target “SMARCAD1 (peptide sequence: KMANHPLLHR, peptide start residue: 780) (UniProt Q9H4L7)”, the log2 fold change amounted to 0.93.

For the target “BRMS1 (peptide sequence: LRLEEVGAERAPEYTEPLGGLQR, peptide start residue: 88) (UniProt Q9HCU9)”, the log2 fold change was -0.255.

Consider “CASS4 (peptide sequence: NCEKEETVQLTPNAEFKCEK, peptide start residue: 591) (UniProt Q9NQ75)”, for which the log2 fold change turned out to be 0.758.

Regarding “DHX33 (peptide sequence: FISSEGDHMTLLNIYR, peptide start residue: 552) (UniProt Q9H6R0)”, the log2 fold change turned out to be 0.399.

For “SUDS3 (peptide sequence: IYLGQLQR, peptide start residue: 310) (UniProt Q9H7L9)”, the log2 fold change turned out to be 0.617.

For the target “TTC12 (peptide sequence: ALVDCEWALK, peptide start residue: 159) (UniProt Q9H892)”, the log2 fold change is 0.392.

Regarding “UniProt Q9HCG1 (peptide sequence: MYECNQVEK, peptide start residue: 201)”, the log2 fold change is -0.3.

As to “UniProt Q9H7X7 (peptide sequence: ILEFENPHVTSNNK, peptide start residue: 40)”, the log2 fold change stood at 0.132.

Take “UniProt Q9HCM9 (peptide sequence: QLGSMVEIAK, peptide start residue: 83)”: the log2 fold change stood at 0.294.

Consider “ACTR8 (peptide sequence: TQAEKGDTENGKEK, peptide start residue: 2) (UniProt Q9H981)”, for which the log2 fold change is -1.13.
